We go through three substances from article PMC5473911.

The chains behind the UniProt entries cited, without tags or fusion partners.
UniProt Q92993: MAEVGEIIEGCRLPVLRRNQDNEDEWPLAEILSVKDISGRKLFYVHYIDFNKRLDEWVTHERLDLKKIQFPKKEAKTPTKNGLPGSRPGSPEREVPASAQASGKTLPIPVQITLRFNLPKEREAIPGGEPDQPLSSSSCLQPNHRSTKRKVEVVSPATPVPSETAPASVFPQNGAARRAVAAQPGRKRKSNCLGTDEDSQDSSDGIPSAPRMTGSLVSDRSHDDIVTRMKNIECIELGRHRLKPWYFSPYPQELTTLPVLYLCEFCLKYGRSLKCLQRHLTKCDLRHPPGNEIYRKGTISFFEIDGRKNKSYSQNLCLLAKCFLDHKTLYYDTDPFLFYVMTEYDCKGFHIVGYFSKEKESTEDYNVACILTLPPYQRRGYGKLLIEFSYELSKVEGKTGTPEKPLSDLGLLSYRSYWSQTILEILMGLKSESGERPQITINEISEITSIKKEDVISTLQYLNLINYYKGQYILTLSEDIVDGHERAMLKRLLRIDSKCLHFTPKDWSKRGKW

Test [1] deals with T1, endogenous PXR (human (endogenous in HepG2)) (UniProt O75469).
T1 sequence: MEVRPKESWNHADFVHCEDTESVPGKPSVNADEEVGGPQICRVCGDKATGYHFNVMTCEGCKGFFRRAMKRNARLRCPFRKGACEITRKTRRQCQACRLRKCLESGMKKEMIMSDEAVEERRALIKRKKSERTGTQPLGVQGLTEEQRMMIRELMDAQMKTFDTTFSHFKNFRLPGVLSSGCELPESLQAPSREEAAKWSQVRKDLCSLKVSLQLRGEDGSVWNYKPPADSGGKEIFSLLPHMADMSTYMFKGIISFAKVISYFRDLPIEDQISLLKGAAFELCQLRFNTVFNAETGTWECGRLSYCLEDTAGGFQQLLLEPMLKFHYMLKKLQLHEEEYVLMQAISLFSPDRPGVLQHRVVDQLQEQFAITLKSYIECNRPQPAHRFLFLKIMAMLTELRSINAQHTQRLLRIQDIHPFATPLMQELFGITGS
The test is described as follows: co-IP; endogenous PXR immunoprecipitated from HepG2 cells with anti-PXR or control mouse IgG; blot with anti-PXR or anti-TIP60.

Test [2] has as its target T2, GFP-PXR (full-length) (human) (UniProt O75469).
T2 sequence: T1 sequence
The test is described as follows: co-IP; Cos-1 cells transfected with GFP-PXR and RFP-TIP60; lysate (20 mM Tris-Cl pH 8.0, 150 mM NaCl, 2 mM EDTA, 0.5% Triton X-100, 0.1% SDS) incubated with anti-PXR antibody overnight at 4 °C, protein A Sepharose; blot with anti-TIP60.

Another test deals with T3, GST-PXR (human) (UniProt O75469).
T3 sequence: T1 sequence
The test is described as follows: pull-down; E. coli BL21 DE3 codon plus cotransformed with pGEX6p2-PXR or pGEX6p2 and pET28a-TIP60; glutathione agarose beads; washed with 1X PBS, 0.2% Triton X-100, 300 mM NaCl; blot with anti-GST and anti-His.

These are yes or no findings as the source states them, for the method shown. In cells and extracts the contact can be indirect. Some binding calls cover weakened binding; strength is not graded here. For part of these data: Where a sequence is shown, tags or fusion partners need not be part of it.

Regarding “endogenous TIP60 (from UniProt Q92993 1-513) (enzyme)”, in test [1], the binding result is “binds”.
Turning to “RFP-TIP60 (from UniProt Q92993 1-513) (enzyme)”, in test [2], the binding result is reported as “binds”.
As to “His-TIP60 (from UniProt Q92993 1-513) (enzyme)”, the binding result in the test with GST-PXR (human) was “binds”.
